Assay results: PMC7671691
These are yes or no findings as the source states them, for the method shown. In cells and extracts the contact can be indirect. Some entries that bind do so weakly or less than the wild type.

Sequences of proteins named here, by UniProt entry; tags and fusion partners are left off.
UniProt P97490: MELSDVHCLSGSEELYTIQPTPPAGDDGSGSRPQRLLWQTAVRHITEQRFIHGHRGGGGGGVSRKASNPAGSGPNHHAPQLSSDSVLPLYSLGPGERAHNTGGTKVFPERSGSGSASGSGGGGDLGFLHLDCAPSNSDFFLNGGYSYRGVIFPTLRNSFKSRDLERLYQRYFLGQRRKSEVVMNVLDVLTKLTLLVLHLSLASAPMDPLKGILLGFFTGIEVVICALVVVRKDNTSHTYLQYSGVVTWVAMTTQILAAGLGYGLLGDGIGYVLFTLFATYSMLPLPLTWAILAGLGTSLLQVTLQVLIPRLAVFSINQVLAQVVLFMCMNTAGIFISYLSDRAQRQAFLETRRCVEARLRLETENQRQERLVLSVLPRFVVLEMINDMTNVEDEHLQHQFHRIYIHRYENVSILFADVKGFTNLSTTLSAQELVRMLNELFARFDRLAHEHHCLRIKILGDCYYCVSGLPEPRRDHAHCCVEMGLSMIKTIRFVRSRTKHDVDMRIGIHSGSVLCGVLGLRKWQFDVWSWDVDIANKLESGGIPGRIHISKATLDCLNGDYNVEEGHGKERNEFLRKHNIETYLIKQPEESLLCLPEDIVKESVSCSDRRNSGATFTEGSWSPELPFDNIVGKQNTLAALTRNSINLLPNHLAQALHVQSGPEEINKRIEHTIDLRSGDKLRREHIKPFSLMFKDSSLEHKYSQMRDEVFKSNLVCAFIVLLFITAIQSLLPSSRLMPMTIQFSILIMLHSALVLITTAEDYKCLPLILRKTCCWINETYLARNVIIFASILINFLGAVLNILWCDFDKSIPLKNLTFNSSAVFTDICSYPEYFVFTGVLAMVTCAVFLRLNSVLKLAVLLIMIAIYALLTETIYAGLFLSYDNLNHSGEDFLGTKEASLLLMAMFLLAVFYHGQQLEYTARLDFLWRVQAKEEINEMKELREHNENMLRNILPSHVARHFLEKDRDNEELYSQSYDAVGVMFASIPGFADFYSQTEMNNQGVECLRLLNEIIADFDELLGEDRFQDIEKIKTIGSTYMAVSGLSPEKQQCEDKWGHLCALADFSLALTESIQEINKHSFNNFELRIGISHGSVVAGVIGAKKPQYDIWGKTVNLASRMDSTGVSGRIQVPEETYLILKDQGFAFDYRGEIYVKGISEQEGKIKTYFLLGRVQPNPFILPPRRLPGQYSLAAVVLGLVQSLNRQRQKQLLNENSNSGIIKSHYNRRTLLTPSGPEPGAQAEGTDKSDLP

Target: T1, AKAP150 (A-kinase anchoring protein 150, rodent ortholog of AKAP79) (mouse (endogenous in MIN6)) (UniProt D3YVF0)
T1 sequence: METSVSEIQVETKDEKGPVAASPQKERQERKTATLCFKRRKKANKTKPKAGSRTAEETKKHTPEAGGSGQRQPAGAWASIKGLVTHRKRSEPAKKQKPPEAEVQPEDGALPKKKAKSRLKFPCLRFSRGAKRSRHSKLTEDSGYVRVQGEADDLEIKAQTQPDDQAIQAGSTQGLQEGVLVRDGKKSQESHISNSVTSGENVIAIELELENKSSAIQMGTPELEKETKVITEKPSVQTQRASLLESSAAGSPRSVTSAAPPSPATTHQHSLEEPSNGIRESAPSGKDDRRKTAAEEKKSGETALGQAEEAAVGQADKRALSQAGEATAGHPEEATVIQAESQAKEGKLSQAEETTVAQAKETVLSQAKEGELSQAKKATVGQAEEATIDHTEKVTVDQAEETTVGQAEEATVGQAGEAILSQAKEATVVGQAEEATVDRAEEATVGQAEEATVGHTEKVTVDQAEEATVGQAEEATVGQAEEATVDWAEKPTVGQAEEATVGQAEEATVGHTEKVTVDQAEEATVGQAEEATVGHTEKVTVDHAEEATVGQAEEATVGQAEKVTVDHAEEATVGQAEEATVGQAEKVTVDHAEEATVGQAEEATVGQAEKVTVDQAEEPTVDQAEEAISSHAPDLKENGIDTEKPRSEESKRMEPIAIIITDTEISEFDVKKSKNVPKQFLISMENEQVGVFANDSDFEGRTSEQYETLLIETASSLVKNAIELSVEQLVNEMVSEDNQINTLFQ
Experiment: proximity ligation; in situ PLA (Duolink red kit) in fixed, permeabilised MIN6 cells; anti-AC8 and anti-AKAP150 primary antibodies conjugated with PLUS or MINUS oligos; PLA puncta per cell counted; non-transfected cells compared with cells expressing EGFP-tagged AC8 1-106

- binding: binds
Substance: AC8 (Ca2+-stimulated adenylyl cyclase 8) (from UniProt P97490 1-1249) (enzyme)
